PubChem BioAssay AID652259 – Drosophila RNAi Screening Center – 2013

- Purpose: 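Knock-downs that push a Wingless-driven reporter up or down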 (primary screen)
- System: Drosophila clone 8 imaginal disc epithelial cells
- Reagent: long dsRNA against Drosophila genes
- Conditions: pathway stimulated by co-transfected Wingless expression plasmid
- Measurement: 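Dual luciferase reads per well after Wingless plasmid stimulation: reporter firefly light and Renilla control light; activity is firefly divided by Renilla, a ratio not deposited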
- Direction: firefly reporter light: higher = more Wg reporter light, before normalisation; Renilla control light: higher = more transfected or surviving cells
- Call rule: 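Strong candidates differ from their plate mean by at least two out of four per-plate statistical tests; weak candidates meet just one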
- Meaning of the calls: active = candidate regulator (raises or lowers reporter); inactive = not a candidate
In all, the deposit lists about 22,000 reagents; this is an unselected part of those that have a named target and a result. In the full data, 233 (1.1%) are marked active. 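Light values are raw, unnormalised plate reads; the ratio scores behind the reporter calls were not deposited.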 A number with no mark means an inactive call. Not stated in the record: the amount of reagent, the time to read-out, the dose of the treatment.

CG10738 [DRSC09792] gave firefly reporter light, replicate 1 = 4492; Renilla control light, replicate 1 = 2139. Silencing of Cpn (Calphotin) [DRSC16613] came out at: firefly reporter light, replicate 1 = 6692; Renilla control light, replicate 1 = 2676. For rdgA (retinal degeneration A) [DRSC17863] the deposit lists firefly reporter light, replicate 1 = 16043; Renilla control light, replicate 1 = 9035. With knock-down of rdgA (retinal degeneration A) [DRSC18036] the results were firefly reporter light, replicate 1 = 23680; Renilla control light, replicate 1 = 12464. For rdgA (retinal degeneration A) [DRSC18827], the entry reads firefly reporter light, replicate 1 = 2394; firefly reporter light, replicate 2 = 8812; Renilla control light, replicate 1 = 994; Renilla control light, replicate 2 = 3111. gl (glass) [DRSC16957] scored firefly reporter light, replicate 1 = 14208; Renilla control light, replicate 1 = 3757.

With knock-down of nclb (no child left behind) [DRSC07009] the results were firefly reporter light, replicate 1 = 1863; firefly reporter light, replicate 2 = 7760; Renilla control light, replicate 1 = 676; Renilla control light, replicate 2 = 2564. With knock-down of CG30082 [DRSC22945], the screen gave firefly reporter light, replicate 1 = 7.13e5; firefly reporter light, replicate 2 = 6.72e5; Renilla control light, replicate 1 = 3.39e5; Renilla control light, replicate 2 = 96792. Tsp42En (Tetraspanin 42En) [DRSC06185] showed firefly reporter light, replicate 1 = 3974; firefly reporter light, replicate 2 = 7372; Renilla control light, replicate 1 = 1187; Renilla control light, replicate 2 = 3304. After knock-down of ATPsynO (ATP synthase, oligomycin sensitivity conferring protein) [DRSC16780], the screen gave firefly reporter light, replicate 1 = 6832; Renilla control light, replicate 1 = 3178. lncRNA:CR43334 (long non-coding RNA:CR43334) [DRSC07894] showed firefly reporter light, replicate 1 = 4292; Renilla control light, replicate 1 = 1978. lncRNA:CR43334 (long non-coding RNA:CR43334) [DRSC07895] scored firefly reporter light, replicate 1 = 1564; Renilla control light, replicate 1 = 1315.

After knock-down of lncRNA:CR32660 (long non-coding RNA:CR32660) [DRSC22965] the results were firefly reporter light, replicate 1 = 4.85e5; firefly reporter light, replicate 2 = 5.63e5; Renilla control light, replicate 1 = 2.00e5; Renilla control light, replicate 2 = 2.13e5. CG5890 [DRSC15909] scored firefly reporter light, replicate 1 = 12089; Renilla control light, replicate 1 = 11856. bel (belle) [DRSC16555] scored reporter change call, replicate 1 = Wg reporter activity raised (active); firefly reporter light, replicate 1 = 22752; Renilla control light, replicate 1 = 2192. Silencing of mbf1 (multiprotein bridging factor 1) [DRSC11365] gave: firefly reporter light, replicate 1 = 9441; Renilla control light, replicate 1 = 3345. Against mi (minus) [DRSC04498], the entry reads firefly reporter light, replicate 1 = 3725; Renilla control light, replicate 1 = 1734. For Orc4 (Origin recognition complex subunit 4) [DRSC04634] the deposit lists firefly reporter light, replicate 1 = 12451; Renilla control light, replicate 1 = 2522.

For Abd-B (Abdominal B) [DRSC14098] the deposit lists firefly reporter light, replicate 1 = 12265; Renilla control light, replicate 1 = 2134. Against Abd-B (Abdominal B) [DRSC14337] the deposit lists firefly reporter light, replicate 1 = 17367; Renilla control light, replicate 1 = 2440. CG12355 [DRSC09381] scored firefly reporter light, replicate 1 = 3576; Renilla control light, replicate 1 = 1419. Silencing of CG12355 [DRSC09883] resulted in: firefly reporter light, replicate 1 = 7545; Renilla control light, replicate 1 = 2460. With knock-down of Sema2b (Semaphorin 2b) [DRSC05609] the results were firefly reporter light, replicate 1 = 18081; Renilla control light, replicate 1 = 10537. Sema2b (Semaphorin 2b) [DRSC05611] showed firefly reporter light, replicate 1 = 23898; Renilla control light, replicate 1 = 10640.

Against Sema2b (Semaphorin 2b) [DRSC06867] the deposit lists firefly reporter light, replicate 1 = 9415; Renilla control light, replicate 1 = 4505. Knock-down of Slip1 (SLo interacting protein 1) [DRSC17146] gave: firefly reporter light, replicate 1 = 1384; firefly reporter light, replicate 2 = 4295; Renilla control light, replicate 1 = 887; Renilla control light, replicate 2 = 1376. Against CG2680 [DRSC18466] the deposit lists firefly reporter light, replicate 1 = 20663; Renilla control light, replicate 1 = 13620. CG8675 [DRSC20117] showed firefly reporter light, replicate 1 = 2176; firefly reporter light, replicate 2 = 8123; Renilla control light, replicate 1 = 1068; Renilla control light, replicate 2 = 3424. Against CG15877 [DRSC08485], the entry reads firefly reporter light, replicate 1 = 3909; Renilla control light, replicate 1 = 2850. With knock-down of CG5866 [DRSC15900] the results were firefly reporter light, replicate 1 = 8160; Renilla control light, replicate 1 = 1578.

Rgk2 (Rad, Gem/Kir family member 2) [DRSC06503] showed firefly reporter light, replicate 1 = 6293; Renilla control light, replicate 1 = 2096. After knock-down of Rgk2 (Rad, Gem/Kir family member 2) [DRSC21651] the results were firefly reporter light, replicate 1 = 6.28e5; firefly reporter light, replicate 2 = 7.45e5; Renilla control light, replicate 1 = 4.60e5; Renilla control light, replicate 2 = 3.78e5.

Targets above whose gene name starts with S or s (4):
Sema2b (Semaphorin 2b) [DRSC05609] | firefly reporter light, replicate 1 = 18081; Renilla control light, replicate 1 = 10537
Sema2b (Semaphorin 2b) [DRSC05611] | firefly reporter light, replicate 1 = 23898; Renilla control light, replicate 1 = 10640
Sema2b (Semaphorin 2b) [DRSC06867] | firefly reporter light, replicate 1 = 9415; Renilla control light, replicate 1 = 4505
Slip1 (SLo interacting protein 1) [DRSC17146] | firefly reporter light, replicate 1 = 1384; firefly reporter light, replicate 2 = 4295; Renilla control light, replicate 1 = 887; Renilla control light, replicate 2 = 1376
